The list shows a part of the results. Further columns of the screen follow, without active or inactive calls. The note in brackets gives the kind of curve behind each potency; many fits are weak.

The results in this text go back to PubChem BioAssay AID996 (National Center for Advancing Translational Sciences (NCATS), 2007).

The target of this assay is Caspase-1 (Homo sapiens) (UniProt P29466). The experiment in a line: Concentration-Response Counterscreen for Redox Active Inhibitors of Caspase-1: Summary. The conditions noted are these: caspase-1 enzyme activity, redox counterscreen (DTT/Cys/catalase). From the text:
NIH Molecular Libraries Screening Centers Network [MLSCN]
NIH Chemical Genomics Center [NCGC]
PI Name: Dr. James Wells,
Dr. Enrique Perez-Paya, Dr.Janice Williams, Dr. Dennis Wolan, a person
The caspases (Cysteine Aspartyl Protease) comprise a related family of 14 dimeric proteases that are critical mediators of apoptosis (programmed cell death) and inflammation. The caspases represent an important class of drug targets for stroke, ischemia, cancer and inflammatory diseases. […] One goal of this project was to identify compounds that act as allosteric inhibitors via stabilizing the procaspase form of the enzyme. Previous work in Well's laboratory has shown that such allosteric inhibitors can be identified and these act by binding at the dimer interface of enzyme (Hardy, Lam et al., 2004).
The biochemical assay was configured using purified caspase 1 at a high enzyme concentration to promote formation of the homodimers and thus facilitate the identification of allosteric inhibitors. The overall goal was to identify reversible inhibitors with better drug-like properties than the currently available set of aspartyl-containing peptidomimetics that covalently bind the active site. Caspase 1 was assayed using the profluorescent substrate Ac-WEHD-AFC. After initiation of the assay with substrate the plates were rapidly read using an automated robotic system (Kalypsys, Inc.) to maintain consistent timing. A kinetic mode of detection was used where the initial rate was collected (estimated final product formation was ~10%). Product formation was also measured after 1 hour. Compounds were screened as a concentration-titration series that ranged from 57 uM to 0.7 nM.
Compounds that generate reactive oxygen species can lead to high hit rates in HTS biochemical assays. This mechanism was cited by Smith et al. (2002) as the main artifact responsible for >85% of the hits in an HTS against caspase 8. We identified a series of putative inhibitors in an enzymatic screen of caspase 1 and we performed two assays to test if these compounds operated by such a redox-active mechanism. Based on the published work, compounds that appear active due to a redox-active mechanism will show shifts in inhibition potency when the redox potential of the buffer is changed. Compounds that show a change in IC50 upon switching the buffer system from DTT to cysteine or DTT and the enzyme catalase are suspected to be redox active compounds.
NCGC Assay Protocol Summary:
Caspase 1 was prepared in buffer (50 mM HEPES pH 7.5, 50 mM KCl, 200 mM NaCl, 0.1% CHAPS and either 10 mM DTT, 10 mM Cys (Aldrich cat# 861677), or 10mM DTT and 50 units/well catalase (from bovine liver, Sigma cat#100)) at a concentration of 66.6 nM and 3 uL was dispensed to all wells using black solid Kalypsys 1536-well plates. 20 nL of DMSO containing compounds was added using a pin-tool (Kalypsys Inc.) to columns 5-48. Then 20 nL of DMSO solution from a control plate was added to columns 1-4. Controls were: Column 1, 16 point titration with each concentration in duplicate (1:1 dilutions in DMSO; final starting concentration was 57 uM) of the caspase 1 inhibitor Ac-WEHD-CHO (Alexis Biochemicals); Column 2, a 16 point titration with each concentration in duplicate of the free AFC fluorophore prepared in DMSO (Alexis Biochemicals), final starting was 40 uM; Column 3 neutral (DMSO only) control; Column 4: DMSO alone, to serve as a negative control (no substrate was added). Then 1 uL of 20 uM the substrate Ac-WEHD-AFC (Alexis Biochemicals) prepared in the same buffer was dispensed to all wells except columns 2 and 4 and the plates were immediately transferred (< 1 min) to the Viewlux. The plates were then exposed using 405 nm excitation/520 nm emission filters for 4 sec and read at 20 sec intervals for 3 min. Final enzyme concentration was 50 nM and the final substrate concentration was 5 uM.
[…]

The mark [1] stands for this setting: measured here: with catalase, rate.

`COc1cc2c(Cc3c4c5c(cc(OC)c(OC)c5c5c(OC)c(OC)ccc35)CCN4C)c3c4c(cc(OC)c(OC)c4c2cc1OC)CCN3C`: the AC50 (measured here: DTT 1 h read) is 12.6 µM [falling, partial curve]; the AC50 (measured here: DTT rate) was 31.6 µM [falling, partial curve]; the AC50 (measured here: cysteine rate) was 25.1 µM [falling, partial curve].

Take `O=C1NCCCC2c3cc(O)c4ccccc4c3OC12N1CCCCC1` (stereo not given): the AC50 (measured here: DTT 1 h read) is 31.6 µM [falling, partial curve].

As for `CC(=O)[C@@H]1[C@@H]2C(=O)N(c3ccc(F)c(Cl)c3)C(=O)[C@@H]2C2c3ccccc3C=CN21` (stereo not given in full), the AC50 runs as follows: (measured here: DTT 1 h read) 31.6 µM [falling, partial curve]; (measured here: cysteine rate) 15.8 µM [falling, partial curve]; under setting [1], 31.6 µM [falling, partial curve].

In the case of `[C-]1=CC=CC1.[C-]1=CC=CC1.[Cl-].[Cl-].[Ti+4]`, the half-maximal activity concentration (AC50) runs as follows: (measured here: DTT 1 h read) 15.8 µM [falling, partial curve]; (measured here: DTT rate) 25.1 µM [falling, partial curve]; (measured here: cysteine 1 h read) 20 µM [falling, partial curve, poor fit].

For `O=C1C(SCCO)=C(SCCO)C(=O)c2ccccc21`, the AC50 (measured here: DTT 1 h read) was 39.8 µM [falling, partial curve].

For the molecule `COc1ccc2c(c1)Cc1sc(NC(=O)c3cccs3)nc1-2`, the AC50 (measured here: DTT 1 h read) is 25.1 µM [falling, partial curve] and the AC50 under setting [1] is 31.6 µM [falling, partial curve].

Turning to `COc1cc(N[C@@H](C)CCCN)c2ncccc2c1`, where the note is “measured here: DTT 1 h read”, the AC50 is 31.6 µM [falling, partial curve, poor fit].

Regarding `CCN1C(=O)/C(=C2/Sc3ccccc3N2CCCS(=O)(=O)O)SC1=S`, the AC50 reads like this: (measured here: DTT rate) 12.6 µM [falling, partial curve]; (measured here: cysteine rate) 15.8 µM [falling, full curve]; under setting [1], 28.2 µM [falling, partial curve].

For the molecule `O=C(COC(=O)c1cc(-c2ccco2)nc2ccccc12)NCc1ccc2c(c1)OCO2`, the AC50 (measured here: DTT rate) is 25.1 µM [falling, partial curve]; the AC50 (measured here: cysteine rate) was 15.8 µM [falling, full curve]; the AC50 under setting [1] is 25.1 µM [falling, partial curve].

One may read the AC50 as the concentration at which the activity in the assay is half-maximal.
